Laboratory results from patent US20030143568A1.
No constants are given. Whether binding was seen depends on the method and setting. Binding seen in cells or lysates may run through a third protein. Some binding calls cover weakened binding; strength is not graded here. Sequences can lack the tags named with a protein.

By UniProt entry, the sequences of proteins in these tests, tags left out. Where a name states a change or a piece, a line headed by the entry shows the natural chain unless it says otherwise.
UniProt P21860: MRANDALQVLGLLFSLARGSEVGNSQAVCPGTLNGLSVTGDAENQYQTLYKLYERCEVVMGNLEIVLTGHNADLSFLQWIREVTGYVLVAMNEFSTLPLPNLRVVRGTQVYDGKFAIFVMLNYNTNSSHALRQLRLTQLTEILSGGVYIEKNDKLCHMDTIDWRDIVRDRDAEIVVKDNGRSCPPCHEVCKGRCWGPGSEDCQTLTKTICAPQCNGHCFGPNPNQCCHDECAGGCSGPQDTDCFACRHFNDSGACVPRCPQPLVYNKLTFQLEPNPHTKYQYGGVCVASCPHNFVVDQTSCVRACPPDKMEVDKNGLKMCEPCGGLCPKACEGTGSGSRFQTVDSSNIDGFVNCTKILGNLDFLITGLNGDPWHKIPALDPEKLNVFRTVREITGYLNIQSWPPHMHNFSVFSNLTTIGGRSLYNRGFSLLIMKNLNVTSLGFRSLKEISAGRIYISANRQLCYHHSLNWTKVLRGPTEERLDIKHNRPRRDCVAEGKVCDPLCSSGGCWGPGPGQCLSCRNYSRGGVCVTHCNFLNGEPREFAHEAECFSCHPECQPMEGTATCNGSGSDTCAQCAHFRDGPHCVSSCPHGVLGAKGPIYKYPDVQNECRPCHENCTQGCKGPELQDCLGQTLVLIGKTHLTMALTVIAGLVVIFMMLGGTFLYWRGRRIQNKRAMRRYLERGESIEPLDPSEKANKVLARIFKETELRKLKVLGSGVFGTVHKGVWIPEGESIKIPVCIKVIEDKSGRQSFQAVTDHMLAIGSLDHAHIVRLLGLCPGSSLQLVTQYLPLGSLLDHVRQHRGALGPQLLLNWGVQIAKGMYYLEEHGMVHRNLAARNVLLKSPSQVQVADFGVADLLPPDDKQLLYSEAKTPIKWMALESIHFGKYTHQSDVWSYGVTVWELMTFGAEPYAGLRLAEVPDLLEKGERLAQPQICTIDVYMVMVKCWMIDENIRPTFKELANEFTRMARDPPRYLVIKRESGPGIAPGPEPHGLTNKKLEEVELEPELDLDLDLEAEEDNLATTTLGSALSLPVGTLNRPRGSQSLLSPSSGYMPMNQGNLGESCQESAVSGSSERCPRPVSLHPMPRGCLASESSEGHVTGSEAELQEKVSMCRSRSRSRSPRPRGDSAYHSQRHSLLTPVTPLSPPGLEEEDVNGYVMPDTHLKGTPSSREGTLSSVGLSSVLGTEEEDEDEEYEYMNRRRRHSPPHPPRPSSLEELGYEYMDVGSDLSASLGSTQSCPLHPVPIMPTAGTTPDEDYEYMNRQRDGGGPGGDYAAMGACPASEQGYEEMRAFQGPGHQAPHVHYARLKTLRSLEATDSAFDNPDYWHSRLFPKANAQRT

Key:
[1] = molecular target: T1, thioredoxin-heregulin fusion with a C-terminal His and S-tag (trx-hrg) (human); assay: pull-down on agarose-bound hrg (FIG. 2B)
T1 sequence: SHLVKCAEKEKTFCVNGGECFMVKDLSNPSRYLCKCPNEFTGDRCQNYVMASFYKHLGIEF

[2] = molecular target: T1, thioredoxin-heregulin fusion with a C-terminal His and S-tag (trx-hrg) (human); assay: pull-down on trx-hrg coupled S-protein agarose
[3] = molecular target: T1, thioredoxin-heregulin fusion with a C-terminal His and S-tag (trx-hrg) (human); assay: pull-down on immobilized S-tagged hrg (FIG. 12B)

Substance	binding [1]	binding [2]	binding [3]
Soluble extracellular domains of recombinant HER3 (HER3-ECD^I-IV), purified from Chinese hamster ovary cells (from UniProt P21860 20-643) (receptor)	binds	binds	–
HER3^I-IV (residues 20-643) in the pMT/BiP/V5-His-A expression vector (from UniProt P21860 20-643) (receptor)	–	binds	binds
HER3-ECD^I-IV that was protected by hrg during proteolytic digestion (from UniProt P21860 20-270; P21860 271-643) (receptor)	binds	binds	–
